Consider 1 molecule from publication PMC6155051, “Structures of insect Imp-L2 suggest an alternative strategy for regulating the bioavailability of insulin-like hormones” (Nature Communications, 2018).

For test [1], the target named is Drosophila imaginal morphogenesis protein-late 2 protein (Imp-L2) (Drosophila melanogaster) (UniProt Q09024). The test can be described thus: SEC-MALS; ligand-free Imp-L2, 1 mg/mL, 50 mM Tris pH 7.4, 300 mM NaCl; Superdex S200 10/300; both purified.
Test [2] shares this target. Kind of test: SEC-MALS; Imp-L2 with DILP5 added; 150 mM NaCl, 50 mM Tris pH 7.4; Superdex S200 10/300, room temperature; both purified.
Test [3] has the same target. Kind of test: SEC-MALS; Imp-L2 with IGF-1 added; 150 mM NaCl, 50 mM Tris pH 7.4; Superdex S200 10/300, room temperature; both purified.
The target is the same in test [4]. Kind of test: SEC-MALS; Imp-L2 with insulin X14 added; 150 mM NaCl, 50 mM Tris pH 7.4; Superdex S200 10/300, room temperature; both purified.

Results are given in words; binding and its absence hold for the method and conditions named.

B1: Drosophila imaginal morphogenesis protein-late 2 protein (Imp-L2) (natural protein, Drosophila melanogaster, UniProt Q09024 26-267, looked up)
chain: RAVDLVDDSNDVDNSIEAEEEKPRNRAFEADWLKFTKTPPTKLQQADGATIEIVCEMMGSQVPSIQWVVGHLPRSELDDLDSNQVAEEAPSAIVRVRSSHIIDHVLSEARTYTCVGRTGSKTIYASTVVHPPRSSRLTPEKTYPGAQKPRIIYTEKTHLDLMGSNIQLPCRVHARPRAEITWLNNENKEIVQGHRHRVLANGDLLISEIKWEDMGNYKCIARNVVGKDTADTFVYPVLNEED
notes: signal peptide in the construct: full-length Drosophila Imp-L2 with the native signal peptide, secreted into the medium; After 3C cleavage, residues of the protease site should remain at the C-terminus (surmised); A selenomethionine-labelled form was also made; the apo structure was solved by MAD; also called Dm Imp-L2; apo-Imp-L2; source: baculovirus-infected Sf9 cells, purified from conditioned …
On to B1, for which the binding result is “no binding (condition: at 300 mM NaCl)” in test [1], “no binding (condition: with DILP5 added)” in test [2], “no binding (condition: with IGF-1 added)” in test [3] and “no binding (condition: with insulin X14 added)” in test [4].
